Assay results from the supplement of paper PMC10849652.
The list shows a part of the results.

Chains of the proteins cited; added tags and fusions are not shown. Lines headed by an entry give the natural chain unless they say otherwise; changes in a name come on top.
UniProt Q96E22: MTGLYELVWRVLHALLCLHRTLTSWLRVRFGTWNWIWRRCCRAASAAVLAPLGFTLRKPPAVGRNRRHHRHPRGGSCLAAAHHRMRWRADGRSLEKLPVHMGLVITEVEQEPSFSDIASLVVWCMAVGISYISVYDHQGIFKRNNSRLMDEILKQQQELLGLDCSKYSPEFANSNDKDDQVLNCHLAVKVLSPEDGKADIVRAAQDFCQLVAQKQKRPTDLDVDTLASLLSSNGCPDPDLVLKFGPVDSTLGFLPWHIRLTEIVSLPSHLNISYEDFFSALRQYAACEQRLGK
UniProt Q13310, whole entry, looked up: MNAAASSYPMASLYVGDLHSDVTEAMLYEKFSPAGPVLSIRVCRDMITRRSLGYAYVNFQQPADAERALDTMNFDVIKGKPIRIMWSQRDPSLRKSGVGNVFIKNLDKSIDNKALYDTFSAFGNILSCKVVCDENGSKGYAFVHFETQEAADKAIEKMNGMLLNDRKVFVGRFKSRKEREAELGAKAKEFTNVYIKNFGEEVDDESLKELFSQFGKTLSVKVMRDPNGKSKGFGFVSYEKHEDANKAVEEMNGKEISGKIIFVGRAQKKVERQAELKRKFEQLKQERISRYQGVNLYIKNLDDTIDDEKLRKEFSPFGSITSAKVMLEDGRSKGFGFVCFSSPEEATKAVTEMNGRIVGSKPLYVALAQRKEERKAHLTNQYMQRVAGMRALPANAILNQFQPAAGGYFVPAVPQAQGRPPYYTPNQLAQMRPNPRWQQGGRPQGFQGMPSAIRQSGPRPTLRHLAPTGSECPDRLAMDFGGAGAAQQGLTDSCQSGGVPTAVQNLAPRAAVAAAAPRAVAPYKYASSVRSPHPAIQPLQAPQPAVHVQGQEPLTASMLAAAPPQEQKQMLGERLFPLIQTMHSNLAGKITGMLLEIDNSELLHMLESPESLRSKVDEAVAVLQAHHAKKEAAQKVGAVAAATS
UniProt Q99567: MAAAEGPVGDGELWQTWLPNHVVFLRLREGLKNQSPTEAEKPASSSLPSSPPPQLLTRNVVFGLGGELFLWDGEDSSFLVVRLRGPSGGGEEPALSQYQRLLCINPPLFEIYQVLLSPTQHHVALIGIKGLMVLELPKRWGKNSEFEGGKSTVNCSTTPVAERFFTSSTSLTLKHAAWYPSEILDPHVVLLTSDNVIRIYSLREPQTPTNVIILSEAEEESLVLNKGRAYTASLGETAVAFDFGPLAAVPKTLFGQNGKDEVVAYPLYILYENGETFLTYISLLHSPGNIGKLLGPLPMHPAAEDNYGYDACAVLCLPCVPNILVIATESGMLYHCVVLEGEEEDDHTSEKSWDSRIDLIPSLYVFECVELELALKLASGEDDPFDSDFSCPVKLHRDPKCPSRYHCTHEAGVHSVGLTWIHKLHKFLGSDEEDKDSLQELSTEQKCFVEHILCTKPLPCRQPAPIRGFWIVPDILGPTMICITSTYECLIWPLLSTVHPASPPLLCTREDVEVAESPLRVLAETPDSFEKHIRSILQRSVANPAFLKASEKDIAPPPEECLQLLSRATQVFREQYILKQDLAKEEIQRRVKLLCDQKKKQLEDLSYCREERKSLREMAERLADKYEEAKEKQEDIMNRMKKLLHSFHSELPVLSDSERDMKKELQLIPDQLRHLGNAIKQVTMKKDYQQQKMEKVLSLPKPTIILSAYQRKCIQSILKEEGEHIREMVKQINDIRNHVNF
UniProt A6NDB9: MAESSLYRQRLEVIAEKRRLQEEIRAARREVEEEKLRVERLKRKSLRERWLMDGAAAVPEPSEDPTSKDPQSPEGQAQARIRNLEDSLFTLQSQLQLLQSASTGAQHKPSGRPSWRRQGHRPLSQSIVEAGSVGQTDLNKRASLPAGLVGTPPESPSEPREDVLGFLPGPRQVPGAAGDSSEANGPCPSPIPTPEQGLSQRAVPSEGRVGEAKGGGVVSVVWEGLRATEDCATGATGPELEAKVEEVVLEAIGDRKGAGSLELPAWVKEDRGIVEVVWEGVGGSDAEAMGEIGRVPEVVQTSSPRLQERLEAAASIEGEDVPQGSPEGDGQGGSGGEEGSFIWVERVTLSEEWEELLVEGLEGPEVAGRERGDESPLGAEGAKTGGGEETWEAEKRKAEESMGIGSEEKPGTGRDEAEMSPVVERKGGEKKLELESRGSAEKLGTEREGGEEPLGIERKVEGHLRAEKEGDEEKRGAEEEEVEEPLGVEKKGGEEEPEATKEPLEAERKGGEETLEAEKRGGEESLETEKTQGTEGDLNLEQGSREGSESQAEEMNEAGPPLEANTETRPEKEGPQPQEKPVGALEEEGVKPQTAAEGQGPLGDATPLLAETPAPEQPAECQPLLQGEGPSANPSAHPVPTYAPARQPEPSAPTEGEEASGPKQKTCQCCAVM
UniProt Q32P28: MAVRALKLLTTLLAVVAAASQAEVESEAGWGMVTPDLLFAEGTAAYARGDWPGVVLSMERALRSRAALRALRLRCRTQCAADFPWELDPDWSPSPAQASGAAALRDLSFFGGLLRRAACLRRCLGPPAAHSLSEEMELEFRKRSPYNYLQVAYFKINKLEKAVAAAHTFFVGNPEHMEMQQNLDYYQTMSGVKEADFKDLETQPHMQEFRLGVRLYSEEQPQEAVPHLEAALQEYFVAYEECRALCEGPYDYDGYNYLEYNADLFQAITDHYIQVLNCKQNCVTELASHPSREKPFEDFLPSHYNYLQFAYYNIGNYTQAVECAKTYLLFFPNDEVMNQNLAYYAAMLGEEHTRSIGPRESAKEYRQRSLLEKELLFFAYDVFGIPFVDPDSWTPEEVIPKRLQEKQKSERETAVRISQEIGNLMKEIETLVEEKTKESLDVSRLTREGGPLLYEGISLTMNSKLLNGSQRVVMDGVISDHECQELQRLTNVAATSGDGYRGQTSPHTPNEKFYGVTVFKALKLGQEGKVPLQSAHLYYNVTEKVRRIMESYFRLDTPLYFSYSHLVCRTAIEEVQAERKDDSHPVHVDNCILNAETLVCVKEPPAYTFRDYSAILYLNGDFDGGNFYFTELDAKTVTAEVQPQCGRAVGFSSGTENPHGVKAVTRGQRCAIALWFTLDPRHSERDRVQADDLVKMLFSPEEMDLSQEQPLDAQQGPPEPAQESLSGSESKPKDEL
UniProt Q9NWU1, whole entry, looked up: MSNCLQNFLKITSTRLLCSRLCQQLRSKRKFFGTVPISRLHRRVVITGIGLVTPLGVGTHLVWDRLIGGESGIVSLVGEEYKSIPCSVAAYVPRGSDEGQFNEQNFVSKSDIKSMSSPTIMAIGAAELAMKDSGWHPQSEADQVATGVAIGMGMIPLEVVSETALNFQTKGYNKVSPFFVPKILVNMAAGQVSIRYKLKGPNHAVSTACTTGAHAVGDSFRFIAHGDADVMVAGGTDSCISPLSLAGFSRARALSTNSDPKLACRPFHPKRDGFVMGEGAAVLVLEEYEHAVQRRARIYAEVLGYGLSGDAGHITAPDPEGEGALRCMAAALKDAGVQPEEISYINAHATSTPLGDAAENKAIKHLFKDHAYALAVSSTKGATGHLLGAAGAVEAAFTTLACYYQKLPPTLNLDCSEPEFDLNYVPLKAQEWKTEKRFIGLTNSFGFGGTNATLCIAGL
UniProt P35658: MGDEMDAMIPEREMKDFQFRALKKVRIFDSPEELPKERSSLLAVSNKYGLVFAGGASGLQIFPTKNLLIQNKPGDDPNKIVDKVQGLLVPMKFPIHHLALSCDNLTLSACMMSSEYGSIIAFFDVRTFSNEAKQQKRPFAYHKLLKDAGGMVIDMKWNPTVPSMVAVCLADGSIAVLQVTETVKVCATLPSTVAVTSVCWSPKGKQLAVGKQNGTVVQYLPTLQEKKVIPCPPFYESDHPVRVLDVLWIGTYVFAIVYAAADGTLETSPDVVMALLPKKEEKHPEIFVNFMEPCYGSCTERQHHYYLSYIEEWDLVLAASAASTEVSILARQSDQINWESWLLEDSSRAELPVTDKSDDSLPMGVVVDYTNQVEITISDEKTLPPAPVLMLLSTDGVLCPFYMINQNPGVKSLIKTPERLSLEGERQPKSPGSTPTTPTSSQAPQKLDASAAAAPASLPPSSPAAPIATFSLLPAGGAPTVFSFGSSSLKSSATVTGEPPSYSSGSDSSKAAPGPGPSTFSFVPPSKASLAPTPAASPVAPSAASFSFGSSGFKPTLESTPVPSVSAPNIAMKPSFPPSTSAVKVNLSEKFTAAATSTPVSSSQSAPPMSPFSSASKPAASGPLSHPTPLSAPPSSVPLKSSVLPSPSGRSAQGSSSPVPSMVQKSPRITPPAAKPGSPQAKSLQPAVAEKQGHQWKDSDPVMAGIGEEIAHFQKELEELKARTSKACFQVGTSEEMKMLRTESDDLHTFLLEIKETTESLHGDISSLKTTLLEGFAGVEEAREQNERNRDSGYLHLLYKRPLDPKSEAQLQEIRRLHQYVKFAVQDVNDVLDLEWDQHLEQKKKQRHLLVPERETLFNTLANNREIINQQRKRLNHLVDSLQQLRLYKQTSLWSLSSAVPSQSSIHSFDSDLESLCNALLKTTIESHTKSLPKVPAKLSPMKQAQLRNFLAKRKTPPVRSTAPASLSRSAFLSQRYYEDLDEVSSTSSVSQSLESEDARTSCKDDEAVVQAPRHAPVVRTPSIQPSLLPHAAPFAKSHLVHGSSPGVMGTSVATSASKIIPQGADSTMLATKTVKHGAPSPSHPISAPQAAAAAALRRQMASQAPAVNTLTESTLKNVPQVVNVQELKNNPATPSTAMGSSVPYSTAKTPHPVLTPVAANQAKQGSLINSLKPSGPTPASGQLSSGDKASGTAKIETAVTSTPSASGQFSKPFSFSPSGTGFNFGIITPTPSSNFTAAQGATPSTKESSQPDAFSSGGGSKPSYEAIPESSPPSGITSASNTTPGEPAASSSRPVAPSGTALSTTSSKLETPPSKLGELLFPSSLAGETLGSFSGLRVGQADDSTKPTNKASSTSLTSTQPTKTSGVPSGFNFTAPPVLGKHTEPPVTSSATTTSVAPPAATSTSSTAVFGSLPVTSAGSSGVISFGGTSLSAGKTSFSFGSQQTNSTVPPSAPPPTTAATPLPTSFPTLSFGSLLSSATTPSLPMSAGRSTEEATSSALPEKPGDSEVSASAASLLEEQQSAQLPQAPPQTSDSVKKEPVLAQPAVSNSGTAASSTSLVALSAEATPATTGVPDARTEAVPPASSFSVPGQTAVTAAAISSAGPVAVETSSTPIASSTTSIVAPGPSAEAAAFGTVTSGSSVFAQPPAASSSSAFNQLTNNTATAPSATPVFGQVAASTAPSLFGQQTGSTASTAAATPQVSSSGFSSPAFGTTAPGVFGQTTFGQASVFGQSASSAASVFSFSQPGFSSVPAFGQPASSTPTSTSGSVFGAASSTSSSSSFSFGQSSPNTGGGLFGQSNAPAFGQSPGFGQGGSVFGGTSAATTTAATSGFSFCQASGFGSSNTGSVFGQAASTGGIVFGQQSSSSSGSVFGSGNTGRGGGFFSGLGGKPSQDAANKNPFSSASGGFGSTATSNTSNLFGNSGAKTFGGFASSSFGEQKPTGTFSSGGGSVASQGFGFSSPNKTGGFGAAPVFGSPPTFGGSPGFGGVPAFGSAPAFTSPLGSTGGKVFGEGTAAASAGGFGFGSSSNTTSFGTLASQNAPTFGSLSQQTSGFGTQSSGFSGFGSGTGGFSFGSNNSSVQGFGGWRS
UniProt Q99497, whole entry, looked up: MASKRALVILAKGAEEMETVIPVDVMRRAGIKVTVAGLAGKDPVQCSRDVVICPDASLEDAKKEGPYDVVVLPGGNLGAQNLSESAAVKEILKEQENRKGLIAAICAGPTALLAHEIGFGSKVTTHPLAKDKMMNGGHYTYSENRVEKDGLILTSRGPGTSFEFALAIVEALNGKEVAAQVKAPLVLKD
UniProt Q99571: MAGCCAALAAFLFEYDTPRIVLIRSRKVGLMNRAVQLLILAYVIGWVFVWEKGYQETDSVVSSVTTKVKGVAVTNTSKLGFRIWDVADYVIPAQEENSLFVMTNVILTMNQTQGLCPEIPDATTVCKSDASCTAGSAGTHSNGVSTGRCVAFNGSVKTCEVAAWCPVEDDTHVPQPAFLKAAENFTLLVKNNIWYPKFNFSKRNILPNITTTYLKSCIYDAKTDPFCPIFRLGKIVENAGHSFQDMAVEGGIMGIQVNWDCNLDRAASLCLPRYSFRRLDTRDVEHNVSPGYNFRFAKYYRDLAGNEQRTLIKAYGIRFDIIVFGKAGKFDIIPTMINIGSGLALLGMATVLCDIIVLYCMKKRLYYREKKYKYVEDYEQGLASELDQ

Legend:
Assay in all cases: log2 fold change, soluble protein after heating vs DMSO (PISA); higher = thermal stabilisation; K562 lysate, 10 uM; active = over 0.2 and 3.5 SD of the protein, either way, in both replicates (recomputed)
ibrutinib = compound: C=CC(=O)N1CCC[C@@H](n2nc(-c3ccc(Oc4ccccc4)cc3)c3c(N)ncnc32)C1 [ibrutinib]
Outline: (§1)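 K562 pellets were dounce-homogenised in PBS pH 7.4 with 1 mM MgCl2, and the crude extract at 1 mg/mL protein was treated with 10 μM compound for 30 min. Aliquots were heated for 3 min across 48°C-58°C, pooled, and brought to 0.5% NP-40 at 4°C; soluble protein was the supernatant after 21,000xg for 90 min. Soluble protein was quantified by TMTpro 16plex LC-MS/MS with channel sums equalised, and reported as log2 fold change in thermal stability against DMSO controls, with values from duplicates.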

[1] = compound: CC(=O)c1cnc2ccc(-c3cc(Cl)c(O)c(Cl)c3)nc2c1N[C@H]1CC[C@H](CN(C)C)CC1
Outline: as §1

ralimetinib = compound: CC(C)(C)Cn1c(N)nc2ccc(-c3[nH]c(C(C)(C)C)nc3-c3ccc(F)cc3)nc21 [ralimetinib]
Outline: as §1

[2] = compound: CC(C)(O)CC(=O)NCCn1ccc2ncnc(Nc3ccc(Oc4cccc(C(F)(F)F)c4)c(Cl)c3)c21
Outline: as §1

[3] = compound: CC(C)C1=C2N=C(C=C(N2N=C1)NCC3=CC=CC=C3)NCCCCCCN
Outline: as §1

[4] = compound: CC1=C(C(CC(=O)N1)C2=CC=C(C=C2)C(F)(F)F)C(=O)NC3=C(C=C4C(=C3)C=NN4)F
Outline: as §1

[5] = compound: CC1=C(C2=C(C=C1)C(=O)C3=CC=CC=C3N2CCCN)C
Outline: as §1

[6] = compound: CC1=C(C=C(C=C1)NC(=O)C2=CC(=CC=C2)C(C)(C)C#N)NC3=CC4=C(C=C3)N=CN(C4=O)C
Outline: as §1

[7] = compound: CC1=C(C=C(C=C1)NC(=O)C2=CC(=CC=C2)N(C)C)NC(=O)C3=CC=C(C=C3)O
Outline: as §1

[8] = compound: CC1=CC=C(C=C1)SC2=C3C=C(SC3=CN=C2)C(=O)N
Outline: as §1

vemurafenib = compound: CCCS(=O)(=O)Nc1ccc(F)c(C(=O)c2c[nH]c3ncc(-c4ccc(Cl)cc4)cc23)c1F [vemurafenib]
Outline: as §1

[9] = compound: CCCS(=O)(=O)Nc1ccc(F)c(C(=O)c2c[nH]c3ncc(Cl)cc23)c1F
Outline: as §1

barasertib = compound: CCN(CCCOc1ccc2c(Nc3cc(CC(=O)Nc4cccc(F)c4)[nH]n3)ncnc2c1)CCOP(=O)(O)O [barasertib]
Outline: as §1

[10] = compound: CC[C@@H]1C(=O)N(C)c2cnc(Nc3ccc(C(=O)NC4CCN(C)CC4)cc3OC)nc2N1C1CCCC1
Outline: as §1

volasertib = compound: CC[C@@H]1C(=O)N(C)c2cnc(Nc3ccc(C(=O)N[C@H]4CC[C@H](N5CCN(CC6CC6)CC5)CC4)cc3OC)nc2N1C(C)C [volasertib]
Outline: as §1

[11] = compound: CCn1c(C(=O)N(C2CC2)C2CC2)cc2c3c(ncn3C)c(Nc3cc(C)n(C)n3)nc21
Outline: as §1

[12] = compound: CCn1cc(-c2ccnc3[nH]c(-c4cccc(CN(C)C)c4)cc23)c(-c2ccc(NC(=O)N(C)C)cc2)n1
Outline: as §1

[13] = compound: CN1CCC(CNc2ccc3ncc(-c4cccc(OC(F)(F)F)c4)n3n2)CC1
Outline: as §1

saracatinib = compound: CN1CCN(CCOc2cc(OC3CCOCC3)c3c(Nc4c(Cl)ccc5c4OCO5)ncnc3c2)CC1 [saracatinib]
Outline: as §1

sotrastaurin = compound: CN1CCN(c2nc(C3=C(c4c[nH]c5ccccc45)C(=O)NC3=O)c3ccccc3n2)CC1 [sotrastaurin]
Outline: as §1

Measured: log2 fold change

PAK1 (UniProt Q13153)
inactive: ibrutinib 0.067 | [1] -0.011 | ralimetinib 0.001 | [2] 0.004 | [3] -0.108 | [4] -0.003 | [5] -0.018 | [6] 0.041 | [7] 0.008 | [8] 0.009 | vemurafenib -0.013 | [9] 0.001 | barasertib -0.001 | [10] -0.002 | volasertib 0.023 | [11] -0.011 | [12] 0.013 | [13] 0.06 | saracatinib 0 | sotrastaurin -0.054

NUS1 (UniProt Q96E22)
inactive: ibrutinib 0.023 | [1] -0.035 | ralimetinib 0 | [2] -0.014 | [3] 0.03 | [4] 0.029 | [5] 0.048 | [6] -0.06 | [7] 0.003 | [8] 0.007 | vemurafenib -0.026 | [9] 0.046 | barasertib 0.008 | [10] 0.075 | volasertib -0.004 | [11] 0.002 | [12] 0.118 | [13] -0.031 | saracatinib 0.085 | sotrastaurin 0.013

PABPC4 isoform 3 (UniProt Q13310)
inactive: ibrutinib -0.011 | [1] -0.027 | ralimetinib -0.008 | [2] 0.022 | [3] -0.019 | [4] -0.019 | [5] -0.002 | [6] -0.038 | [7] -0.003 | [8] 0.03 | vemurafenib 0.007 | [9] 0 | barasertib -0.005 | [10] 0.008 | volasertib 0.004 | [11] 0.014 | [12] 0.018 | [13] -0.03 | saracatinib -0.005 | sotrastaurin -0.008

NUP88 (UniProt Q99567)
inactive: ibrutinib -0.022 | [1] -0.002 | ralimetinib -0.032 | [2] -0.022 | [3] 0.031 | [4] 0.012 | [5] 0.036 | [6] -0.084 | [7] -0.036 | [8] -0.006 | vemurafenib -0.019 | [9] -0.016 | barasertib 0.061 | [10] 0.015 | volasertib -0.035 | [11] 0.038 | [12] -0.052 | [13] 0.004 | saracatinib -0.005 | sotrastaurin -0.002

PALM3 (UniProt A6NDB9)
inactive: ibrutinib 0.015 | [1] -0.007 | ralimetinib 0.005 | [2] 0.033 | [3] -0.05 | [4] 0.027 | [5] 0.005 | [6] 0.019 | [7] 0.002 | [8] -0.058 | vemurafenib -0.001 | [9] 0.008 | barasertib -0.033 | [10] 0.022 | volasertib -0.027 | [11] -0.029 | [12] -0.132 | [13] 0.058 | saracatinib 0.013 | sotrastaurin -0.021

NUP54 (UniProt Q7Z3B4)
inactive: ibrutinib 0.028 | [1] 0.015 | ralimetinib -0.023 | [2] -0.039 | [3] 0.019 | [4] 0.025 | [5] 0.016 | [6] -0.032 | [7] 0.008 | [8] -0.023 | vemurafenib -0.019 | [9] 0.027 | barasertib 0.067 | [10] 0.031 | volasertib -0.048 | [11] 0.03 | [12] -0.21 | [13] 0.092 | saracatinib 0.01 | sotrastaurin 0.003

P3H1 (UniProt Q32P28)
inactive: ibrutinib -0.002 | [1] -0.006 | ralimetinib 0.024 | [2] -0.004 | [3] -0.01 | [4] 0.021 | [5] -0.007 | [6] -0.03 | [7] -0.027 | [8] -0.003 | vemurafenib -0.027 | [9] 0.028 | barasertib -0.002 | [10] -0.019 | volasertib -0.001 | [11] -0.009 | [12] -0.069 | [13] -0.019 | saracatinib 0.01 | sotrastaurin 0.015

OXSM (UniProt Q9NWU1)
inactive: ibrutinib 0.022 | [1] 0.013 | ralimetinib -0.006 | [2] -0.032 | [3] -0.037 | [4] 0.016 | [5] -0.003 | [6] 0.032 | [7] -0.022 | [8] -0.016 | vemurafenib -0.013 | [9] 0.036 | barasertib -0.045 | [10] 0.042 | volasertib 0.035 | [11] -0.028 | [12] -0.111 | [13] 0.069 | saracatinib 0 | sotrastaurin -0.007

NUP214 (UniProt P35658)
inactive: ibrutinib -0.014 | [1] 0.004 | ralimetinib -0.003 | [2] -0.016 | [3] -0.003 | [4] -0.007 | [5] 0.008 | [6] -0.062 | [7] 0.009 | [8] -0.011 | vemurafenib 0.011 | [9] 0.003 | barasertib 0.044 | [10] 0.009 | volasertib -0.033 | [11] 0.003 | [12] -0.08 | [13] 0.065 | saracatinib 0.027 | sotrastaurin 0.008

OCIAD1 (UniProt D6RF01)
inactive: ibrutinib 0.523 | [1] -0.047 | [4] 0.295 | [8] 0.043 | [9] 0.027 | barasertib -0.121 | volasertib 0.033

PARK7 (UniProt Q99497)
inactive: ibrutinib -0.034 | [1] 0.002 | ralimetinib -0.026 | [2] -0.02 | [3] 0.006 | [4] -0.036 | [5] -0.019 | [6] 0.026 | [7] -0.033 | [8] -0.021 | vemurafenib 0.012 | [9] -0.01 | barasertib 0.028 | [10] 0.001 | volasertib 0.035 | [11] -0.011 | [12] 0.034 | [13] -0.034 | saracatinib -0.021 | sotrastaurin -0.04

P2RX4 isoform 2 (UniProt Q99571)
inactive: ibrutinib 0.027 | [1] 0.021 | ralimetinib -0.053 | [2] -0.102 | [3] -0.094 | [5] -0.006 | [6] 0.03 | [7] -0.001 | [8] -0.151 | vemurafenib 0.133 | [9] -0.049 | barasertib -0.042 | [10] 0.047 | volasertib -0.034 | [11] 0.022 | [12] -0.276 | [13] 0.229 | saracatinib -0.016 | sotrastaurin 0.099
